Measurements reported in PubChem BioAssay AID2685 (National Center for Advancing Translational Sciences (NCATS), 2010).
Some of the results follow. These are further read-outs of the screen, such as a control signal, another cell line or another target. No call is given for them. Compounds called inactive in the main read-out are mostly missing here. The note in brackets gives the kind of curve behind each potency; many fits are weak.

Experiment: qHTS Assay for Lipid Storage Modulators in Drosophila S3 Cells;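 on cell number change: cells counted by Cell Tracker Red CMTPX staining in the red channel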
Details: BODIPY lipid droplet fluorescence, 18-24 h; for cell number change: measured here: cell count max response, cells fed with added oleic acid
Summary of the method: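 Drosophila S3 cells loaded with oleic acid (400 uM, as added) and compounds at several concentrations; lipid droplets imaged by 488-nm laser-scanning cytometry, 500–530 nm intensity and object ratio to cell channel. Percent activity normalized to 20 uM Triacsin C.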

[1] = measured here: cell number channel AC50, cells fed with added oleic acid
[2] = measured here: lipid fluorescence (Fed channel) AC50, cells fed with added oleic acid

Structure (SMILES) | cell number change | AC50 [1] | AC50 [2]
CCN(CC)CCNC(=O)c1[nH]c2ccc(OCc3ccccc3)cc2c1C | 9.38% |  | 
COc1ccc2ccccc2c1C(O)c1nccn1C (stereo not given) | -5.85% |  | 
CCN1CCSc2ccc(C(=O)NCc3cccc(Br)c3)cc21 | 1.15% |  | 
Oc1ccc(Cl)cc1CNCc1cccc2ccccc12 | -15.2% | 4.11 µM [falling, single point] | 
Cc1cc(C(=O)NNC(=O)c2sccc2C)c(C)o1 | -7.98% |  | 9.2 µM [rising, partial curve, poor fit]
O=C(O)c1cnn(-c2nc(-c3ccc(F)cc3)cs2)c1C(F)(F)F | -45.5% | 1.3 µM [falling, full curve] | 0.92 µM [falling, full curve]
CS(=O)(=O)N(Cc1ccc(F)cc1)Cc1nc2ccccc2c(=O)[nH]1 | 19.5% |  | 
CC(C)n1cc(NC(=O)COc2ccccc2Cl)cn1 | 18.1% |  | 
C=CCn1c(SCC(N)=O)nnc1-c1cccc(Br)c1 | 5.37% | 0.116 µM [falling, single point] | 2.31 µM [rising, partial curve]
CCCC1CCC(=C(C#N)C(N)=O)CC1 (stereo not given) | 6.44% |  | 
CN(C)c1ccc(/C=C2\C(=N)N3N=C(CC(=O)N4CCCCC4)SC3=NC2=O)cc1 | 64% | 16.4 µM [rising, single point] | 
CCNC(=O)NC(=O)C(C)Oc1ccc(C(=O)OC)cc1 (stereo not given) | -2.22% |  | 1.46 µM [falling, full curve, poor fit]
COc1cccc(N2CCN(S(=O)(=O)c3ccc4c(c3)oc(=O)n4C)CC2)c1 | 59.2% |  | 
C/C(=N\NC(=O)c1ccc(CSc2nncn2C)cc1)c1ccc(Cl)cc1 | -58.6% | 20.6 µM [falling, partial curve] | 3.26 µM [rising, partial curve, poor fit]
COc1ccc(-n2nc(C(=O)NCC(=O)N3CC(C)CC(C)C3)c3ccccc3c2=O)cc1 (stereo not given) | -6.76% |  | 0.58 µM [falling, single point]
CC(Oc1ccc(Cl)cc1Cl)C(=O)NN=C1CCN(C)CC1 (stereo not given) | 9.11% |  | 16.4 µM [falling, single point]
CC(C)N(CC(N)=O)c1ncnc2sc(-c3ccccc3)cc12 | -13.9% |  | 29.1 µM [rising, single point]
CC(C)(C)NC(=O)NC(=O)CSc1ccc(S(=O)(=O)N2CCOCC2)cn1 | -3.16% |  | 5.17 µM [falling, single point]
COc1cc(C(=O)Nc2nnc(S(=O)(=O)N3CCCCCC3)s2)cc(OC)c1OC | 2.67% |  | 20.6 µM [falling, single point]
Cn1nc(C(F)(F)F)c(C#N)c1N1CCN(c2ccc(F)cc2)CC1 | 42% | 1.3 µM [rising, full curve] | 
Cc1nc(CN2CCN(Cc3nc(C(c4ccccc4)c4ccccc4)no3)CC2)cs1 | -12.7% |  | 0.184 µM [falling, full curve, poor fit]

Structure (SMILES) | cell number change | AC50 [1] | AC50 [2]
CCSc1nnc(-c2cccs2)o1 | -52.9% | 29.1 µM [falling, single point] | 29.1 µM [falling, single point]
CNC(=O)/C(=C/c1ccc2c(c1)OCO2)NC(=O)c1ccc(Br)cc1 | 15.5% |  | 1.46 µM [rising, partial curve, poor fit]
CN1CCN(C2=C(Cl)C(=O)N(c3ccc(Cl)cc3)C2=O)CC1 | -3.03% |  | 29.1 µM [falling, single point]
Oc1c(C=C2N=c3ccccc3=N2)sc(=S)n1-c1ccccc1 | -9.15% |  | 6.51 µM [falling, single point]
COCCNC(=O)c1onc(CSc2ccc(F)cc2)c1C(=O)NCCOC | 22.6% |  | 8.2 µM [rising, partial curve]
Cn1c(Cc2c[nH]c3ccccc23)n[nH]c1=S | 107% | 20.6 µM [rising, single point] | 
CCCNC(=O)CSc1nnc(-c2ccc(F)cc2)o1 | 19.5% |  | 1.16 µM [rising, single point]
Cc1ccc(SCCNC(=O)/C=C/c2cccc([N+](=O)[O-])c2)cc1 | 43.9% | 5.17 µM [rising, partial curve] | 0.00411 µM [rising, partial curve, poor fit]
CCCS(=O)(=O)N1CCCC(C(=O)NCc2ccc3c(c2)OCO3)C1 (stereo not given) | -32.3% |  | 
CCOc1ccc(OCC)c(NC(=O)CCNS(=O)(=O)c2cc(Br)cnc2N)c1 |  |  | 1.64 µM [falling, partial curve]
CCc1nnc(NC(=O)CSc2nnc(-c3ccc(S(=O)(=O)N4CCCC4)cc3)n2CC)s1 | -19.2% |  | 29.1 µM [falling, single point]
C(=C\c1ccccc1)/C=N/N1CCN(c2ccccn2)CC1 | 43.5% | 2.91 µM [rising, full curve] | 3.66 µM [rising, partial curve]
CC1Cc2ccccc2N1C(=O)CCn1c(=O)oc2ccccc21 (stereo not given) | 30.3% |  | 
Cc1cc(N/N=C/c2ccccc2Br)nc2ccccc12 | 17.8% |  | 1.64 µM [rising, partial curve, poor fit]
CCN(CC)C(=O)c1oc2ccc(S(=O)(=O)N3CCCCCC3)cc2c1C | 10.9% | 1.03 µM [rising, full curve] | 
COc1ccc2c(c1)CCc1c(C(=O)NCCCn3ccnc3)noc1-2 | -10.1% |  | 0.411 µM [falling, full curve]
Cc1cc(C(=O)CCl)c(C)n1-c1c(C)n(C)n(-c2ccccc2)c1=O | -87.1% | 18.4 µM [falling, partial curve] | 4.61 µM [falling, full curve]
CC(C)OC(=O)C1C(=O)CC(C)(O)C(C(=O)OC(C)C)C1c1ccccc1 (stereo not given) | -7.84% |  | 4.11 µM [falling, single point]
O=C(CN(Cc1ccco1)C(=O)c1ccccc1F)Nc1ccccc1C(F)(F)F | -0.129% | 0.146 µM [rising, full curve, poor fit] | 29.1 µM [falling, single point]
CC(C)[C@@]1(c2ccccc2)ON(c2ccccc2C(F)(F)F)C1=O | -38.5% | 4.11 µM [falling, single point] | 9.2 µM [falling, single point]
O=C(O)CCc1nn2c3ccccc3n(Cc3ccccc3F)c2nc1=O | -22.1% | 0.00517 µM [falling, full curve, poor fit] | 0.116 µM [falling, full curve]

Structure (SMILES) | cell number change | AC50 [1] | AC50 [2]
O=C(N/N=C/c1ccc2c(c1)OCO2)c1cccnc1 | 1.26% |  | 
CC1Cc2ccccc2N1C(=S)Nc1cccc(S(=O)(=O)N(C)C)c1 (stereo not given) | 66.4% | 0.259 µM [rising, full curve] | 29.1 µM [rising, partial curve]
CC(NS(=O)(=O)c1ccccc1Cl)C1CC2CCC1C2 (stereo not given) | -3.97% |  | 
Cc1ccsc1C1C(C#N)=C(N)OC2=C1C(=O)CC(C)(C)C2 (stereo not given) | 14.8% |  | 
NS(=O)(=O)c1ccc(NC(=O)NC2CCCCC2)cc1 | -32% | 0.651 µM [falling, full curve, poor fit] | 
COc1ccc2nc(NC(=O)CN(c3ccc(C)cc3)S(=O)(=O)c3c(C)nn(C)c3C)sc2c1 | 3.89% |  | 
COc1cccc(-c2csc(N3CCN(CC(=O)NNC(=O)c4ccc(Br)cc4)CC3)n2)c1 | 41.6% |  | 29.1 µM [rising, single point]
CC(C)(CN1CCCCC1)NS(=O)(=O)c1ccc(Cl)cc1 | -37.7% | 23.1 µM [falling, single point] | 5.8 µM [falling, full curve]
CO/N=C(\c1ccccc1)c1cccnc1 | 7.42% |  | 29.1 µM [rising, single point]
O=C(Nc1cc2c(cc1C(=O)O)OCCCO2)c1ccc(F)cc1F | -28.9% |  | 
CCOC(=O)c1ccc(NC(=O)C2CCCN(S(=O)(=O)c3ccc(F)cc3)C2)cc1 (stereo not given) | 88.3% | 2.06 µM [rising, partial curve, poor fit] | 2.91 µM [rising, partial curve, poor fit]
c1ccc(-c2nnc(-c3ccncc3)nc2-c2ccccc2)cc1 |  | 1.84 µM [falling, partial curve] | 1.84 µM [falling, partial curve]
Cn1c(SCC(=O)Nc2cccc(F)c2)nc2c(c1=O)SCC2 | -5.1% |  | 16.4 µM [rising, single point]
CC(C)c1ccc(S(=O)(=O)N2CCN(C(=O)n3ccnc3)CC2)cc1 | -6.49% |  | 0.82 µM [falling, full curve, poor fit]
Cc1c(C(=O)N(C)CCc2cnn(C)c2)oc2c(F)cccc12 | -35.4% | 0.13 µM [falling, full curve] | 
CN1CCN(c2ccc(NC(=O)c3cc(S(N)(=O)=O)ccc3N3CCOCC3)cc2)CC1 | -14.5% |  | 6.51 µM [rising, single point]
COc1ccc(S(=O)(=O)N2CCCC2CNC(=O)C(=O)NCc2ccccc2)cc1 (stereo not given) | 72.2% | 16.4 µM [rising, partial curve] | 2.06 µM [rising, partial curve]
Cc1ccc(OCCC(=O)OCC(=O)Nc2c(C)nn(-c3ccccc3)c2C)cc1 |  |  | 6.51 µM [falling, single point]
O=C(COC(=O)c1ccc2ccccc2c1O)NCC(F)(F)F | -13.5% |  | 0.0206 µM [falling, partial curve, poor fit]

Fetched by compound from above:
Structure (SMILES) | cell number change | AC50 [1] | AC50 [2]
COc1cccc(-c2csc(N3CCN(CC(=O)NNC(=O)c4ccc(Br)cc4)CC3)n2)c1 | 41.6% |  | 29.1 µM [rising, single point]
Oc1c(C=C2N=c3ccccc3=N2)sc(=S)n1-c1ccccc1 | -9.15% |  | 6.51 µM [falling, single point]
O=C(O)c1cnn(-c2nc(-c3ccc(F)cc3)cs2)c1C(F)(F)F | -45.5% | 1.3 µM [falling, full curve] | 0.92 µM [falling, full curve]
